Results are given in words; binding and its absence hold for the method and conditions named. In cells and extracts the contact can be indirect. Some binding calls cover weakened binding; strength is not graded here.
Legend:
Assay in all cases: co-IP
[1] = target: HPV18 E7 WT (Flag and HA-tagged) (HPV18) (UniProt P06788)
[2] = target: HPV16 E7 Δ21-24 (Flag and HA-tagged) (HPV16) (UniProt P03129)
[3] = target: HPV18 E7 R84S (Flag and HA-tagged) (HPV18) (UniProt P06788)
[4] = target: HPV16 E7 R77S (Flag and HA-tagged) (HPV16) (UniProt P03129)
[5] = target: HPV16 E7 WT (Flag and HA-tagged) (HPV16) (UniProt P03129)

B1: non-receptor protein tyrosine phosphatase type 14 (PTPN14) (protein, UniProt Q15678 1-1187)
chain: MPFGLKLRRTRRYNVLSKNCFVTRIRLLDSNVIECTLSVESTGQECLEAVAQRLELRETHYFGLWFLSKSQQARWVELEKPLKKHLDKFANEPLLFFGVMFYVPNVSWLQQEATRYQYYLQVKKDVLEGRLRCTLDQVIRLAGLAVQADFGDYNQFDSQDFLREYVLFPMDLALEEAVLEELTQKVAQEHKAHSGILPAEAELMYINEVERLDGFGQEIFPVKDNHGNCVHLGIFFMGIFVRNRIGRQAVIYRWNDMGNITHNKSTILVELINKEETALFHTDDIENAKYISRLFATRHKFYKQNKICTEQSNSPPPIRRQPTWSRSSLPRQQPYILPPVHVQCGEHYSETHTSQDSIFHGNEEALYCNSHNSLDLNYLNGTVTNGSVCSVHSVNSLNCSQSFIQASPVSSNLSIPGSDIMRADYIPSHRHSAIIVPSYRPTPDYETVMRQMKRGILHTDSQSQSLRNLNIINTHAYNQPEDLVYSQPEMRERHPYTVPYGPQGVYSNKLVSPSDQRNPKNNVVPSKPGASAISHTVSTPELANMQLQGSHNYSTAHMLKNYLFRPPPPYPRPRPATSTPDLASHRHKYVSGSSPDLVTRKVQLSVKTFQEDSSPVVHQSLQEVSEPLTATKHHGTVNKRHSLEVMNSMVRGMEAMTLKSLHLPMARRNTLREQGPPEEGSGSHEVPQLPQYHHKKTFSDATMLIHSSESEEEEEEAPESVPQIPMLREKMEYSAQLQAALARIPNKPPPEYPGPRKSVSNGALRQDQASLPPAMARARVLRHGPAKAISMSRTDPPAVNGASLGPSISEPDLTSVKERVKKEPVKERPVSEMFSLEDSIIEREMMIRNLEKQKMAGLEAQKRPLMLAALNGLSVARVSGREENRVDATRVPMDERFRTLKKKLEEGMVFTEYEQIPKKKANGIFSTAALPENAERSRIREVVPYEENRVELIPTKENNTGYINASHIKVVVGGAEWHYIATQGPLPHTCHDFWQMVWEQGVNVIAMVTAEEEGGRTKSHRYWPKLGSKHSSATYGKFKVTTKFRTDSVCYATTGLKVKHLLSGQERTVWHLQYTDWPDHGCPEDVQGFLSYLEEIQSVRRHTNSMLEGTKNRHPPIVVHCSAGVGRTGVLILSELMIYCLEHNEKVEVPMMLRLLREQRMFMIQTIAQYKFVYQVLIQFLQNSRLI
**Q.** Which results are given for B1?
**A.** binding [1]: binds; binding [2]: binds; binding [3]: no binding; binding [4]: no binding; binding [5]: binds

B2: retinoblastoma tumor suppressor (RB1) (protein, UniProt P06400 1-928)
chain: MPPKTPRKTAATAAAAAAEPPAPPPPPPPEEDPEQDSGPEDLPLVRLEFEETEEPDFTALCQKLKIPDHVRERAWLTWEKVSSVDGVLGGYIQKKKELWGICIFIAAVDLDEMSFTFTELQKNIEISVHKFFNLLKEIDTSTKVDNAMSRLLKKYDVLFALFSKLERTCELIYLTQPSSSISTEINSALVLKVSWITFLLAKGEVLQMEDDLVISFQLMLCVLDYFIKLSPPMLLKEPYKTAVIPINGSPRTPRRGQNRSARIAKQLENDTRIIEVLCKEHECNIDEVKNVYFKNFIPFMNSLGLVTSNGLPEVENLSKRYEEIYLKNKDLDARLFLDHDKTLQTDSIDSFETQRTPRKSNLDEEVNVIPPHTPVRTVMNTIQQLMMILNSASDQPSENLISYFNNCTVNPKESILKRVKDIGYIFKEKFAKAVGQGCVEIGSQRYKLGVRLYYRVMESMLKSEEERLSIQNFSKLLNDNIFHMSLLACALEVVMATYSRSTSQNLDSGTDLSFPWILNVLNLKAFDFYKVIESFIKAEGNLTREMIKHLERCEHRIMESLAWLSDSPLFDLIKQSKDREGPTDHLESACPLNLPLQNNHTAADMYLSPVRSPKKKGSTTRVNSTANAETQATSAFQTQKPLKSTSLSLFYKKVYRLAYLRLNTLCERLLSEHPELEHIIWTLFQHTLQNEYELMRDRHLDQIMMCSMYGICKVKNIDLKFKIIVTAYKDLPHAVQETFKRVLIKEEEYDSIIVFYNSVFMQRLKTNILQYASTRPPTLSPIPHIPRSPYKFPSSPLRIPGGNIYISPLKSPYKISEGLPTPTKMTPRSRILVSIGESFGTSEKFQKINQMVCNSDRVLKRSAEGSNPPKPLKKLRFDIEGSDEADGSKHLPGESKFQQKLAEMTSTRTRMQKQKMNDSMDTSNKEEK
**Q.** For B2, which binding [1] is on record?
**A.** Its binding is “binds”.

**Q.** What about the binding [3] of the same binder?
**A.** The binding was “binds”.

**Q.** What about the binding [4] of the same binder?
**A.** Its binding is “binds”.

**Q.** And the binding [5]?
**A.** Its binding is “binds”.

Source: publication doi:10.1101/2020.05.22.111740
